# Reference: the supplement of paper PMC8728848
# The list shows a part of the results.
# Key:
# Experiment in all cases: glycan array binding signal (z-score within array); higher = stronger binding
# Settings in all cases: glycan notation: IUPAC condensed, linker removed
# [1] = molecular target: GlcNAc(b1-4)GlcNAc(b1-4)GlcNAc(b1-4)GlcNAc(b1-4)GlcNAc
# Procedure, shortened: (§1)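 The binding signal is a Z-score computed within each array. Data were drawn from 3228 arrays in the Consortium for Functional Glycomics database, restricted to those with a known protein sequence. Scores were averaged over arrays of the same protein sequence at different concentrations or buffers, and over linkers, and negative values can be taken as non-binding.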
# [2] = molecular target: GlcNAc(b1-4)GlcNAc(b1-4)GlcNAc(b1-4)GlcNAc(b1-4)GlcNAc(b1-4)GlcNAc
# Procedure, shortened: as §1
# [3] = molecular target: GlcNAc(b1-4)[GlcNAc(b1-6)]GalNAc
# Procedure, shortened: as §1
# [4] = molecular target: GlcNAc(b1-6)Gal(b1-4)GlcNAc
# Procedure, shortened: as §1
# [5] = molecular target: GlcNAc(b1-6)GalNAc
# Procedure, shortened: as §1
# [6] = molecular target: GlcNAc6S(b1-3)Gal(b1-4)GlcNAc
# Procedure, shortened: as §1
# [7] = molecular target: Kdn(a2-3)Gal(b1-3)GalNAc
# Procedure, shortened: as §1
# [8] = molecular target: Kdn(a2-3)Gal(b1-3)GlcNAc
# Procedure, shortened: as §1
# [9] = molecular target: Kdn(a2-3)Gal(b1-4)Glc
# Procedure, shortened: as §1
# [10] = molecular target: Kdn(a2-3)Gal(b1-4)GlcNAc
# Procedure, shortened: as §1
# [11] = molecular target: Kdn(a2-3)Gal(b1-4)[Fuc(a1-3)]GlcNAc
# Procedure, shortened: as §1
# [12] = molecular target: Kdn(a2-6)Gal(b1-4)GlcNAc
# Procedure, shortened: as §1
# [13] = molecular target: Man(a1-2)Man(a1-2)Man(a1-3)Man
# Procedure, shortened: as §1
# [14] = molecular target: Man(a1-2)Man(a1-2)Man(a1-6)[Man(a1-3)]Man
# Procedure, shortened: as §1
# [15] = molecular target: Man(a1-2)Man(a1-3)Man
# Procedure, shortened: as §1
# [16] = molecular target: Man(a1-2)Man(a1-3)[Man(a1-2)Man(a1-6)]Man
# Procedure, shortened: as §1
# [17] = molecular target: Man(a1-2)Man(a1-3)[Man(a1-2)Man(a1-6)]Man(a1-6)[Man(a1-2)Man(a1-2)Man(a1-3)]Man
# Procedure, shortened: as §1
# [18] = molecular target: Man(a1-2)Man(a1-3)[Man(a1-2)Man(a1-6)]Man(a1-6)[Man(a1-2)Man(a1-2)Man(a1-3)]Man(b1-4)GlcNAc(b1-4)GlcNAc
# Procedure, shortened: as §1
# [19] = molecular target: Man(a1-2)Man(a1-3)[Man(a1-6)]Man(a1-6)[Man(a1-2)Man(a1-3)]Man(b1-4)GlcNAc(b1-4)GlcNAc
# Procedure, shortened: as §1
# [20] = molecular target: Man(a1-2)Man(a1-6)[Man(a1-3)]Man(a1-6)[Man(a1-2)Man(a1-2)Man(a1-3)]Man
# Procedure, shortened: as §1
# [21] = molecular target: Man(a1-2)Man(a1-6)[Man(a1-3)]Man(a1-6)[Man(a1-2)Man(a1-2)Man(a1-3)]Man(b1-4)GlcNAc(b1-4)GlcNAc
# Procedure, shortened: as §1
# [22] = molecular target: Man(a1-3)[Man(a1-6)]Man
# Procedure, shortened: as §1
# [23] = molecular target: Man(a1-3)[Man(a1-6)]Man(a1-6)[Man(a1-2)Man(a1-3)]Man(b1-4)GlcNAc(b1-4)GlcNAc
# Procedure, shortened: as §1
# [24] = molecular target: Man(a1-3)[Man(a1-6)]Man(a1-6)[Man(a1-3)]Man
# Procedure, shortened: as §1
# [25] = molecular target: Man(a1-3)[Man(a1-6)]Man(a1-6)[Man(a1-3)]Man(b1-4)GlcNAc(b1-4)GlcNAc
# Procedure, shortened: as §1
# [26] = molecular target: Man(a1-3)[Man(a1-6)]Man(b1-4)GlcNAc(b1-4)GlcNAc
# Procedure, shortened: as §1
# [27] = molecular target: Man(a1-3)[Man(a1-6)]Man(b1-4)GlcNAc(b1-4)[Fuc(a1-6)]GlcNAc
# Procedure, shortened: as §1
# [28] = molecular target: Man(a1-6)Man
# Procedure, shortened: as §1
# [29] = molecular target: Man(b1-4)GlcNAc
# Procedure, shortened: as §1
# [30] = molecular target: MurNAc(b1-4)GlcNAc
# Procedure, shortened: as §1
# [31] = molecular target: Neu5Ac(a2-3)Gal
# Procedure, shortened: as §1
# [32] = molecular target: Neu5Ac(a2-3)Gal(b1-3)GalNAc
# Procedure, shortened: as §1
# [33] = molecular target: Neu5Ac(a2-3)Gal(b1-3)GalNAc(b1-3)Gal(a1-4)Gal(b1-4)Glc
# Procedure, shortened: as §1
# [34] = molecular target: Neu5Ac(a2-3)Gal(b1-3)GalNAc(b1-4)Gal(b1-4)Glc
# Procedure, shortened: as §1
# [35] = molecular target: Neu5Ac(a2-3)Gal(b1-3)GalNAc(b1-4)[Neu5Ac(a2-3)]Gal(b1-4)Glc
# Procedure, shortened: as §1
# [36] = molecular target: Neu5Ac(a2-3)Gal(b1-3)GalNAc(b1-4)[Neu5Ac(a2-8)Neu5Ac(a2-3)]Gal(b1-4)Glc
# Procedure, shortened: as §1
# [37] = molecular target: Neu5Ac(a2-3)Gal(b1-3)GalNAc6S
# Procedure, shortened: as §1
binder,measurement,setting,value
Epa8 (Candida glabrata) (protein) MGSSHHHHHHSSGLVPRGSHMASSRALSDYPLGCSPLLGTKLTPGLSMELYEYPLDNHGIGPHCWDPAYLNPEYPRTGFESHKLIGTAQNVMSLNFEHRTQDCHVEFSNLPASFNFPDQITLTNFTMLLYGYFKPKESGRYRFHMEADDLLLMNLGAGNAFDCCAHEATRNNLGDYIAYDIWAGTRKDVEVFLEKEVFYPLRLFFNNRDGRAALDFSYYLNGATEPGTDIPELLFSLPDGESCPAYI,glycan array binding signal (z-score),[1],-0.17
same,glycan array binding signal (z-score),[2],-0.995
same,glycan array binding signal (z-score),[3],-0.496
same,glycan array binding signal (z-score),[4],0.344
same,glycan array binding signal (z-score),[5],-0.238
same,glycan array binding signal (z-score),[6],0.179
same,glycan array binding signal (z-score),[7],1.26
same,glycan array binding signal (z-score),[8],0.921
same,glycan array binding signal (z-score),[9],-0.52
same,glycan array binding signal (z-score),[10],-0.636
same,glycan array binding signal (z-score),[11],0.498
same,glycan array binding signal (z-score),[12],0.143
same,glycan array binding signal (z-score),[13],-0.518
same,glycan array binding signal (z-score),[14],0.082
same,glycan array binding signal (z-score),[15],-0.876
same,glycan array binding signal (z-score),[16],-0.246
same,glycan array binding signal (z-score),[17],-0.416
same,glycan array binding signal (z-score),[18],-0.901
same,glycan array binding signal (z-score),[19],-0.502
same,glycan array binding signal (z-score),[20],-0.553
same,glycan array binding signal (z-score),[21],0.309
same,glycan array binding signal (z-score),[22],0.062
same,glycan array binding signal (z-score),[23],0.887
same,glycan array binding signal (z-score),[24],0.355
same,glycan array binding signal (z-score),[25],-0.145
same,glycan array binding signal (z-score),[26],-0.093
same,glycan array binding signal (z-score),[27],2.33
same,glycan array binding signal (z-score),[28],0.434
same,glycan array binding signal (z-score),[29],0.737
same,glycan array binding signal (z-score),[30],-0.255
same,glycan array binding signal (z-score),[31],-0.882
same,glycan array binding signal (z-score),[32],0.408
same,glycan array binding signal (z-score),[33],-0.171
same,glycan array binding signal (z-score),[34],-0.095
same,glycan array binding signal (z-score),[35],-0.268
same,glycan array binding signal (z-score),[36],-0.292
same,glycan array binding signal (z-score),[37],-0.063

# In another format: results already given
binder | measurement | setting | value
Epa8 (Candida glabrata) (protein) MGSSHHHHHHSSGLVPRGSHMASSRALSDYPLGCSPLLGTKLTPGLSMELYEYPLDNHGIGPHCWDPAYLNPEYPRTGFESHKLIGTAQNVMSLNFEHRTQDCHVEFSNLPASFNFPDQITLTNFTMLLYGYFKPKESGRYRFHMEADDLLLMNLGAGNAFDCCAHEATRNNLGDYIAYDIWAGTRKDVEVFLEKEVFYPLRLFFNNRDGRAALDFSYYLNGATEPGTDIPELLFSLPDGESCPAYI | glycan array binding signal (z-score) | [2] | -0.995
same | glycan array binding signal (z-score) | [5] | -0.238
